The other results are listed elsewhere or left out. The main result of the screen is listed elsewhere. These columns were measured beside it and carry no call. The list favours compounds with an active or inconclusive main result. The note in brackets gives the kind of curve behind each potency; many fits are weak.
Test: qHTS Assay for Modulators of Lamin A Splicing
Settings: HeLa LMNA splicing GFP/RFP minigene ratio, 48 h
How it was run: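 S3 HeLa cells stably expressing lamin A-EGFP splicing minigene plus DsRed2, 600 cells/well, 48 h compound exposure at 37C. Laser-scanning cytometry; analysed as GFP (500-530 nm)/RFP (575-640 nm) total intensity ratio; 0.5% DMSO vehicle.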

[1] = measured here: RFP viability control channel
[2] = measured here: GFP splicing reporter channel

SMILES | AC50 [1] | AC50 [2]
Cc1ccc2nc(N/N=C/c3ccco3)cc(C)c2c1 | 31.6 µM [rising, single point] | 
Cc1ccccc1C(=O)c1c[nH]c(C(=O)NCc2cccs2)c1 |  | 1.26 µM [falling, full curve, poor fit]
C/C(N)=C(/C#N)C(=O)COC(=O)c1cc(C)n(-c2ccc(F)cc2)c1C | 12.6 µM [rising, single point] | 
COCCNC(=S)N/N=C/c1ccc(OCc2ccc(C(=O)OC)cc2)c(OC)c1 | 2.51 µM [falling, single point] | 
CSc1nc(-c2ccc(Cl)cc2)c(C#N)c(=O)[nH]1 | 0.0251 µM [rising, full curve, poor fit] | 
Cc1ccc(SCCOCCN2CCc3ccccc3C2)cc1 | 17.8 µM [rising, single point] | 17.8 µM [rising, single point]
Cc1nc(-c2ccncc2)sc1C(=O)Nc1ccc(Cl)cc1 |  | 0.0708 µM [rising, partial curve, poor fit]
CCCCNS(=O)(=O)c1ccc2nc(NC(=O)c3cccnc3)sc2c1 |  | 0.708 µM [rising, partial curve]
CCN(CC)c1ccc(NC(=O)c2cnn(CC)c2)cc1 | 3.55 µM [falling, single point] | 3.98 µM [falling, single point]
CCOC(=O)c1ccccc1NC(=O)Cn1c(-c2nonc2N)nc2ccccc21 | 1.78 µM [rising, full curve] | 2.82 µM [rising, full curve]
CCN1C(=O)c2cccc3c(S(=O)(=O)N(C(=O)c4ccncc4)c4ccc(OC)cc4)ccc1c23 | 20 µM [rising, single point] | 
O=C(Nc1nnc(-c2ccccc2Cl)o1)c1cc2cc([N+](=O)[O-])ccc2s1 | 35.5 µM [rising, single point] | 35.5 µM [rising, single point]
Cc1ccc(-c2nn(-c3ccccc3)cc2/C=N/NC(=O)c2ccc(Br)o2)cc1 | 7.94 µM [falling, partial curve, poor fit] | 
O=C(N/N=C/C1CC=CCC1)c1ccc(Cl)cc1O (configuration not stated) | 35.5 µM [rising, single point] | 
O=C(NN=C(Cc1ccccc1)Cc1ccccc1)c1ccccc1O |  | 0.01 µM [rising, partial curve]
Cn1c(CO)cnc1SCc1ccc(F)cc1 |  | 12.6 µM [falling, single point]
Cc1c(NCc2cc(Cl)cc(Cl)c2O)c(=O)n(-c2ccccc2)n1C | 12.6 µM [rising, single point] | 17.8 µM [rising, single point]
Cc1nc(NCc2ccccn2)c2ccccc2n1 | 28.2 µM [rising, single point] | 
O=c1c2ccccc2nc(/C=C/c2cccc([N+](=O)[O-])c2)n1CCO | 14.1 µM [rising, partial curve, poor fit] | 

Structures from the list above that have a furan ring, fused or not:
SMILES | AC50 [1] | AC50 [2]
Cc1ccc2nc(N/N=C/c3ccco3)cc(C)c2c1 | 31.6 µM [rising, single point] | 
Cc1ccc(-c2nn(-c3ccccc3)cc2/C=N/NC(=O)c2ccc(Br)o2)cc1 | 7.94 µM [falling, partial curve, poor fit] | 

(next part)

SMILES | AC50 [1] | AC50 [2]
CCC(Sc1nnc(-c2ccc(OC)cc2)c(-c2ccc(OC)cc2)n1)C(=O)NC1CCCCC1 (configuration not stated) | 35.5 µM [rising, single point] | 
Cc1ccc(/C(N)=N/OC(=O)N2CCOCC2)cc1 | 25.1 µM [falling, single point] | 12.6 µM [falling, single point]
Cc1ccc(S(=O)(=O)NCCC(c2ccc(F)cc2)c2ccco2)cc1 (configuration not stated) | 35.5 µM [rising, single point] | 
CCC1CCCCN1C(=S)NC(=O)c1ccc([N+](=O)[O-])cc1 (configuration not stated) | 14.1 µM [rising, single point] | 
COc1ccc(N2CC(NC(=O)c3ccc(S(=O)(=O)N4CCCC4)cc3)CC2=O)cc1 (configuration not stated) | 0.0501 µM [falling, full curve] | 
COc1cccc(N2CC(NC(=O)/C=C\c3ccc4c(c3)OCO4)CC2=O)c1 (configuration not stated) |  | 2.24 µM [rising, full curve, poor fit]
O=C(CCCn1c(=S)[nH]c2cc3c(cc2c1=O)OCO3)N1CCN(c2ccc(Cl)cc2)CC1 | 7.94 µM [rising, partial curve] | 2.82 µM [rising, full curve, poor fit]
COc1ccccc1NC(=O)CCSc1ccc(C)cc1 | 35.5 µM [falling, single point] | 28.2 µM [falling, partial curve, poor fit]
CC1(C)CC(NC(=S)Nc2ccc([N+](=O)[O-])cc2)CC(C)(C)N1 | 0.501 µM [falling, full curve, poor fit] | 0.794 µM [falling, full curve]
O=c1cc(N2CCN(c3ccccc3)CC2)[nH]c(=O)n1-c1ccccc1 | 0.0126 µM [falling, full curve] | 
COc1ccccc1Nc1cc(C(=O)NCCCN(C)c2ccccc2)c2ccccc2n1 | 35.5 µM [rising, single point] | 
Cc1nc2cc(N3CCCCC3)c(NC(=O)c3ccncc3)cc2c(=O)n1Cc1ccccc1 |  | 17.8 µM [rising, single point]
NC(=O)C1CCCN(C(=S)Nc2ccccc2)C1 (configuration not stated) | 2.24 µM [falling, partial curve] | 
CCOC(=O)C1=C(N)n2c(s/c(=C\c3cccs3)c2=O)=C(C(=O)OCC)C1c1cccs1 (configuration not stated) | 7.08 µM [rising, partial curve] | 
COc1ccccc1NC(=O)Cn1nnc(-c2ccccc2NS(=O)(=O)c2ccccc2)n1 | 1.41 µM [rising, partial curve, poor fit] | 
CCn1c(SCC(=O)c2ccc(C)cc2)nnc1-c1ccncc1 | 0.224 µM [falling, full curve] | 
CCNc1nc(CN2CCCCC2)nc2scc(-c3ccccc3)c12 | 20 µM [rising, partial curve, poor fit] | 
COc1ccc(CN2C(=O)NC3(CCCCCC3)C2=O)cc1F | 22.4 µM [rising, single point] | 22.4 µM [rising, single point]

— PubChem BioAssay AID1487 (National Center for Advancing Translational Sciences (NCATS), 2009)
